The subject of this data set is second and fourth instars larvae of the laboratory strain of cotton leafworm, S. littoralis. The data set can be described thus: Insecticidal bioassay screening (castor leaf dip). In kind it is in vivo. The note with it: after 72 hrs of treatment, slope of LDP line. As for the experimental part:
Five concentrations (200, 100, 50, 25, 12.5 ppm) were designed for this synthetic compound and the reference Diflubenzuron compound as the dynamic ingredients based on ppm via diluting the commercial formulation.
In this experiment, castor leaves are immersed in each of the previously prepared concentrations of the components for 10 seconds and then left to dry for 60 minutes. Larvae of the second and fourth instars of each checked strain are prepared with treated leaves in gauze-covered glass containers for 72 hrs. An untreated control is made in which leaves are dipped in triton x-100 and distilled water only. Then the preserved leaves were removed & fresh, untreated leaves were provided for 72 hours. Three replicates (10 larvae each) were checked for each concentration. Daily inspection was carried out for all treatments and mortality percentages were recorded 3 days (72 hours) after treatment. The average mortality percentage was corrected employing Abbott's formula. The corrected mortality rate for each of the previously synthesized compounds is statistically calculated according to Finney (1970). Through this rate, the corresponding concentration test lines (LDP lines) are assessed.

The structures appear in SMILES notation.

Consider `O=C(NC(=S)Nc1ncn(-c2ccccc2)n1)c1ccccc1` [Compound 1, N-[(1-phenyl-1H-1,2,4-triazol-3-yl)carbamothioyl]benzamide], for which the Slope runs as follows: (2nd instar larvae) 1.10 ± 0.36; (4th instar larvae) 1.123 ± 0.35.

For the origin of these results see patent US12121026B1, “N-[(1-phenyl-4H-1,2,4-triazol-3-yl) carbamothioyl]benzamide as an eco-friendly insecticidal agent against spodoptera littoralis” (KING FAISAL UNIVERSITY, priority 2023, dated 2024).
